Percent effect of library compounds

The chains behind the UniProt entries cited, without tags or fusion partners.
UniProt P9WPC5, whole entry: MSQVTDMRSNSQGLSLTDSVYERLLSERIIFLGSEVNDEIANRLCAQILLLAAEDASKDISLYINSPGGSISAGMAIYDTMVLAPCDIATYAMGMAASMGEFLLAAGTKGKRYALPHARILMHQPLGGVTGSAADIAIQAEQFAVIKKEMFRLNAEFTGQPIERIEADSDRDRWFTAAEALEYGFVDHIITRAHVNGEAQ
UniProt P9WPC3, whole entry partner: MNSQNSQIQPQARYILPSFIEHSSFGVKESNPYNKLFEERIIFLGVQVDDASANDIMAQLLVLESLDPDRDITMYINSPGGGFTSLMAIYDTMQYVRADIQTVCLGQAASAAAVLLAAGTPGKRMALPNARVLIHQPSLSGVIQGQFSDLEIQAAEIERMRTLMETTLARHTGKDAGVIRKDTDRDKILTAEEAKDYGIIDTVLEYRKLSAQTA
UniProt P9WFT3, whole entry: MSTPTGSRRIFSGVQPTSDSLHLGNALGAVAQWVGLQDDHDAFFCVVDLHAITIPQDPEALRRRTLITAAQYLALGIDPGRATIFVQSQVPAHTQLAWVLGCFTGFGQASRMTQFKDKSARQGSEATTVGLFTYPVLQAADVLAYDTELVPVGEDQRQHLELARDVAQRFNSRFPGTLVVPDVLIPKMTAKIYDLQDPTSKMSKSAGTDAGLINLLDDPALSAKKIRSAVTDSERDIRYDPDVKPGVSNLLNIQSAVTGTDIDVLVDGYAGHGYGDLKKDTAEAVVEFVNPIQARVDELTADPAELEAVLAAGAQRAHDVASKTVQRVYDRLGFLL
UniProt P9WNZ1, whole entry: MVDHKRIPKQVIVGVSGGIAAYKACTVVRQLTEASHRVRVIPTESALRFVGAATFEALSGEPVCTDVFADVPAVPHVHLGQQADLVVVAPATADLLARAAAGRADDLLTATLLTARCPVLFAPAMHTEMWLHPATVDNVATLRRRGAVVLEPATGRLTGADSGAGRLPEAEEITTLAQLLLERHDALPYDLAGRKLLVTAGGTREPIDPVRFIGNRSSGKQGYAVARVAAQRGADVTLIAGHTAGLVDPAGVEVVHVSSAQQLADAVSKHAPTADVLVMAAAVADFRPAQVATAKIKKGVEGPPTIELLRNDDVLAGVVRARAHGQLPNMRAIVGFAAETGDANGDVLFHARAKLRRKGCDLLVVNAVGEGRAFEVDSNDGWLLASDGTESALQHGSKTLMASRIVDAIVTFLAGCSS

Source: ChEMBL document CHEMBL3988442, “University of Dundee, Small-Polar-MMV Screening Library” (2021).

A: 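Protease assay of ClpP1P2, read by the AMC dye that it sets free. Target: ClpP1P2, Mycobacterium tuberculosis (UniProt P9WPC5 and UniProt P9WPC3). Tested at 50 µM. Direction is inferred from only a few compounds that gave an IC50; most scored high, so higher reads as stronger inhibition. Most other retested compounds had strongly negative values. Size under these conditions: about 69,000 compounds, about 10 of them at 50% or above in at least one test.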
B: 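Assay of Toxoplasma gondii numbers, read through their beta-galactosidase reporter with a colour substrate. Tested at 10 µM. Higher reads as fewer parasites (inferred from which compounds were picked for retests). Of about 67,000 compounds tested this way, about 260 (0.38%) reached 50% or more in at least one test.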
C: 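Tryptophan-tRNA ligase, Mycobacterium tuberculosis (UniProt P9WFT3). Enzyme assay of tryptophanyl-tRNA synthetase; the read-out is not stated. Compounds at 10 µM. Higher most likely means stronger inhibition; the record gives no direction and few retests gave an IC50. Of about 65,000 compounds tested this way, about 64 (0.098%) reached 50% or more in at least one test.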
D: 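Coenzyme A biosynthesis protein CoaBC, Mycobacterium tuberculosis (UniProt P9WNZ1). Enzyme assay of CoaBC with a phosphate dye (Biomol Green) read at 650 nm. Compounds at 30 µM. Higher reads as stronger inhibition, judged from the few compounds that gave an IC50. Most strong results did not repeat in a second test. Size under these conditions: about 67,000 compounds, about 40 of them at 50% or above in at least one test.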

Each number is a percent effect as filed. How 0% and 100% were set is not recorded. Most values in the screen are low, and negative values occur. The compounds are a random part of those screened.

{"smiles": "c1ccc(C[C@H]2[C@H](N3CCOCC3)CCN2Cc2cccnc2)cc1", "A": -3.072, "B": 2.03, "C": 0.3148, "D": -3.426}
{"smiles": "O=S(=O)(c1ccc(-c2cnco2)cc1)N1CCCC2(CCNCC2)CC1", "A": -0.5654, "B": 3.467, "C": 3.118, "D": 0.6361}
{"smiles": "N#Cc1cccc(CN2CCO[C@@H]3CNC[C@@H]32)c1", "A": 2.275, "C": 2.186, "D": 8.75}
{"smiles": "Cc1cnn(CC2CCCN2Cc2cc(=O)n3cccc(C)c3n2)c1", "stereo": "stereo unspecified", "A": -22.06, "B": 1.435, "C": 0.1676, "D": 13.22}
{"smiles": "CC(C)c1nccn1C(C)C(=O)NCc1noc(Cc2cccs2)n1", "stereo": "stereo unspecified", "A": -27.72, "B": -8.183, "C": -2.894, "D": 6.087}
{"smiles": "[H][C@@]12CN(C(C)=O)C[C@]1(C(=O)NC)CCC21CCN(S(C)(=O)=O)CC1", "B": 6.164}
{"smiles": "O=C(COc1cc(Cl)cc(Cl)c1)NCc1nncn1C1CC1", "A": -7.936, "B": -2.393, "C": 2.709, "D": 1.106}
{"smiles": "O=C1CCC(c2ccc(Cl)cc2)=NN1CN1CCSCC1", "A": 1.304, "B": -19.66, "C": -2.034, "D": 7.468}
{"smiles": "CN(Cc1nnc(-c2cccs2)o1)Cc1nc2c(s1)CCCC2", "A": -10.53, "B": -9.342, "C": -1.685, "D": -13.44}
{"smiles": "Cc1nc(CN2CCCC2C(=O)OCc2ccccc2)oc1C", "stereo": "stereo unspecified", "A": 2.324, "B": 7.449, "C": -6.311, "D": 6.38}
{"smiles": "C=Cc1ccc(CN2C(=O)C3(CCNCC3)Nc3ccccc32)cc1", "A": -1.06, "B": 29.5, "C": -2.764, "D": -43.52}
{"smiles": "CCn1ncc2c1CCCC2NCc1cccc2c1OCCCO2", "stereo": "stereo unspecified", "A": 6.875, "B": 2.108, "C": 4.217, "D": 5.216}
{"smiles": "Cc1cnn(CC2CCCCN2C(=O)CCCc2nc(C)no2)c1", "stereo": "stereo unspecified", "A": -20.7, "B": 7.256, "C": 1.634, "D": -4.326}
{"smiles": "Cc1c(NC(=O)N(C)CCn2cnnc2)cccc1OC1CCCC1", "A": 1.626, "B": 6.311, "C": -4.397, "D": 0.6369}
{"smiles": "CCc1ccccc1NC(=O)CCc1cnn(C)c1", "A": -24.39, "B": -21.97, "C": 4.838, "D": 4.082}
{"smiles": "CCc1ccc(CN2CCCn3c(nc(Cn4ccnc4)cc3=O)C2)o1", "A": -8.452, "C": 1.106, "D": 4.01}
{"smiles": "O=C(COCC(F)(F)F)N1CCCC(n2cccn2)C1", "stereo": "stereo unspecified", "A": -12, "B": 12, "C": -3.64, "D": -1.79}
{"smiles": "Cn1nc(C2CN(C(=O)c3cscn3)C2)c2nccnc21", "A": 7.01, "B": 5.701, "C": -2.425, "D": -1.944}
{"smiles": "Cc1nc(O)cc(C2CCCN2CCO)n1", "stereo": "stereo unspecified", "A": 10.25, "B": -7.078, "D": 4.412}
{"smiles": "COc1ncccc1C(=O)N1CC[C@H]2C[C@H](c3ccncn3)O[C@@H]2C1", "A": -7.737, "C": -2.213, "D": 6.516}
{"smiles": "[H][C@]12CC[C@@]3(N=C(CC)N(CCOC)C3=O)[C@@]1([H])CN(S(=O)(=O)CC)C2", "B": -6.998}
{"smiles": "Cc1cccc(CN2C(=O)CCC23CCNCC3)n1", "A": -7.953, "C": -2.819, "D": 3.529}

For reference, 2 entries once more:

Result for CC(C)c1nccn1C(C)C(=O)NCc1noc(Cc2cccs2)n1 (stereo unspecified) was A: -27.72%; B: -8.183%; C: -2.894%; D: 6.087%.
Result for CCn1ncc2c1CCCC2NCc1cccc2c1OCCCO2 (stereo unspecified) was A: 6.875%; B: 2.108%; C: 4.217%; D: 5.216%.